Results published in the supplement of paper PMC3414501.
The list shows a part of the results, in another mix than the full data.

Tested on: S. cerevisiae AD1-9 (efflux-pump deficient), vegetative growth in YPD; in the data active = 2 or more and inactive = the rest
Test: growth sensitivity score (doubling time z-score vs DMSO controls); higher = slower growth, strongly negative scores also mark growth inhibition (complete suppression), active = hit call of the paper
Summary of the method: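 Saccharomyces cerevisiae strains BY4741 and AD1-9 were seeded in rich medium in microtiter plates at an OD600 of 0.065. Compounds were added at a 1:100 dilution of DMSO stock. Optical density was read every 15 min for 24 hours on a Tecan GENios reader. Average doubling time was the time taken to reach a set generation point divided by generation number, and the growth sensitivity score was (compound mean − DMSO-control mean)/DMSO-control SD, using eight DMSO controls per experiment.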

SMILES: Cc1cccc(CCN2CCC(C(=O)c3ccc(NS(C)(=O)=O)cc3)CC2)n1
- growth sensitivity score (stock concentration (mM, diluted 1:100): 9.9): inactive: -1.81

SMILES: Cc1c(C(=O)NN2CCCCC2)nn(-c2ccc(Cl)cc2Cl)c1-c1ccc(I)cc1
- growth sensitivity score (stock concentration (mM, diluted 1:100): 10): active: 40.2
